In US20160214926A1, “DIPHENYLOXYALKYLAMINE DERIVATIVES AND ARYLOXYALKYLAMINE DERIVATIVES, PHARMACEUTICAL COMPOSITION, USE OF SAID PHARMACEUTICAL COMPOSITION FOR TREATING, PREVENTING OR INHIBITING CHRONIC PULMONARY INFLAMMATORY DISEASES AND METHOD FOR TREATING OR PREVENTING SUCH DISEASES” (FUNDACAO OSWALDO CRUZ, priority 2013, published 2016):
For at least one compound, name, drawing or mass did not settle the structure.

Test system: A/J mice
Assay: Acute airway inflammation induced by cigarette smoke
Assay type: in vivo
Details: JME-209 30 and 100 mg/kg
Protocol: Male A/J mice (18-20 g), coming from the Laboratory Animal Breeding Center of Oswaldo Cruz Foundation, were used in the experiments. The animals were placed in a chamber and subjected to an atmosphere enriched with 100 ml of smoke from 4 filter cigarettes (trade mark) for 1 minute on four consecutive days. Control animals were exposed to the condition in which cigarette smoke was replaced by equal volume of ambient air (Castro et al., 2009).
[…] The compounds were dissolved in 0.9% NaCl just prior to administration.
Obtaining of bronchoalveolar lavage, as well as the total and differential leukocyte counts carried out in this effluent, were made as previously described (Olsen et al., 2011). Thus, after 24 hrs of the last exposure to cigarette smoke, the mice were sacrificed by terminal anesthesia with thiopental (500 mg/kg). Then, they had the trachea dissected and cannulated BAL was performed by 3 consecutive lavages of 800 μl of PBS containing EDTA (10 mM). The lavages were then subjected to centrifugation (1500 rpm-10 minutes) and the cell “pellet” resuspended in the volume of 0.5 ml of PBS/EDTA solution 10 mM. The total leukocyte count from the lavage was performed in a Neubauer chamber by light microscopy (100× magnification), diluting an aliquot of the cell suspension from the lavage in TPrk liquid (1:40). The differential counting was performed on cytocentrifuged, which were stained with May-Grunwald-Giemsa and assessed using oil immersion objective (1000× magnification).

C[C@@H]1C[C@H]2[C@@H]3CCC4=CC(=O)C=C[C@]4(C)[C@@]3(F)[C@@H](O)C[C@]2(C)[C@@]1(O)C(=O)CO [dexamethasone, reference compound]
eosinophils in bronchoalveolar effluent (dexamethasone 1 mg/kg, orally): inhibited
mononuclear cells in bronchoalveolar effluent (dexamethasone 1 mg/kg, orally): unable to inhibit
neutrophils in bronchoalveolar effluent (dexamethasone 1 mg/kg, orally): only partially inhibited
accumulation of total leukocytes in bronchoalveolar space (dexamethasone 3 mg/kg, orally 1 hr before smoke): ineffective
